# Measurements from paper PMC7819943, “Rice protein-binding microarrays: a tool to detect cis-acting elements near promoter regions in rice”.
# Chains of the proteins cited; added tags and fusions are not shown.
# UniProt Q0JBA9, entry or part of it: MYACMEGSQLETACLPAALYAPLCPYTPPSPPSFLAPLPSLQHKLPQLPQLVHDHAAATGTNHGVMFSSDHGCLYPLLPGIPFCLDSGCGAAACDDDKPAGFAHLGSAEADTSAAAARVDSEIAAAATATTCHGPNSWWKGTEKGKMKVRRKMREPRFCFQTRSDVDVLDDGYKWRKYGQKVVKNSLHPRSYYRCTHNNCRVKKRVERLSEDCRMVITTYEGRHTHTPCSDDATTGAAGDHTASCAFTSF
# This is one part of the list.
# Target: OsWRKY34 (Oryza sativa, UniProt Q0JBA9 1-250)
# Assay: protein-binding microarray (RPBM); PBS, 2% BSA, 51.3 ng/ul salmon testes DNA, 50 uM zinc acetate, 200 nM TF, 25 C, 1 h; high values mean tight binding
# Conditions: protein: recombinant; tags: N-terminal polyhistidine and DsRed monomer fusion (pET32a); label: CyDye5-dUTP incorporated in the synthesized complementary strand; 3' TTTTT single-stranded linker to array surface; dsDNA, one strand shown
# Method in brief: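 In PBS with 2% BSA, salmon testes DNA and 50 µM zinc acetate, 200 nM protein was incubated on a custom Agilent array at 25 °C for 1 h and then washed off. The array had been made double-stranded by primer extension with Cy5-dUTP and blocked with 2% BSA. The proteins were transcription factors fused N-terminally to polyhistidine and DsRed, expressed in E. coli BL21-CodonPlus and purified on Ni–NTA. The binding signal is per-feature fluorescence intensity (arbitrary units) from an Axon 4000B scanner.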
row,Sequence,binding signal
1,CTGGTGCCACCTTCTCCTGTTGGCTTCATCACCACAGCTCCGGAGTCACCTAGTGCAG,9840 fluorescence intensity (a.u.)
2,CAAGGTGAGCATATGCCGCGCGGGGATGGGGATGGATAGACGGAGTCACCTAGTGCAG,9040 fluorescence intensity (a.u.)
3,TAGTTGTGGTGGACAAGTTTTCCAAATATGCTCATTTTCTCGGAGTCACCTAGTGCAG,8090 fluorescence intensity (a.u.)
4,AATACAGAACCACAGAGCAGGGGCAGGGCATTTCACAATACGGAGTCACCTAGTGCAG,10100 fluorescence intensity (a.u.)
5,AAACACCTCGTCTCGCGGCGCTCACTCAGATTACTCACACCGGAGTCACCTAGTGCAG,9610 fluorescence intensity (a.u.)
6,ATCTCCCGACCGACAATCCGGCCCCACCATCCAGACACCCCGGAGTCACCTAGTGCAG,10100 fluorescence intensity (a.u.)
7,AACACCACTACCGCGGCCATATACTTCCCTCGATTCGACGCGGAGTCACCTAGTGCAG,8180 fluorescence intensity (a.u.)
8,TCATTATTAATTCCTCTCTCTCTCTCTGTCTCCTATCCCTCGGAGTCACCTAGTGCAG,12500 fluorescence intensity (a.u.)
9,AGTGTAATTTTATTTGCAATACTTTTGTTATATACTATTTCGGAGTCACCTAGTGCAG,8450 fluorescence intensity (a.u.)
10,TGACACGGCACCAAACGCCTCTCGCTCCGCGACGTTAACTCGGAGTCACCTAGTGCAG,9140 fluorescence intensity (a.u.)
11,AAGAACCTTTCCATCTACAGGGCTCTTTCTATTACGTACGCGGAGTCACCTAGTGCAG,8100 fluorescence intensity (a.u.)
12,CAGTAGTGGGTATCTCTTCTCTTGGCTTCTTCCTGGAAATCGGAGTCACCTAGTGCAG,8880 fluorescence intensity (a.u.)
13,CAGATATCAATTCTGTTTGTTGCACTGTTCTTTTCTTCCACGGAGTCACCTAGTGCAG,9370 fluorescence intensity (a.u.)
14,TCTTCCCTTGTTTATCCTGGATATTCCGGAGGACTTCGCTCGGAGTCACCTAGTGCAG,9830 fluorescence intensity (a.u.)
15,ATTCTTTTTCTTTTTCTAATTAATCGTGTGTTAATTGTTTCGGAGTCACCTAGTGCAG,9430 fluorescence intensity (a.u.)
16,ATCTCCTCTTAGCTCGATCGGCTTGCTAGCTCCTCGGCCACGGAGTCACCTAGTGCAG,10000 fluorescence intensity (a.u.)
17,TCCATTGGCCACACTCCGATTCCTCTCTTCCTTCCTAAAACGGAGTCACCTAGTGCAG,11500 fluorescence intensity (a.u.)
18,TCTCTTCCATCTCACCCATCGCCGCCACAACTTGCCTCACCGGAGTCACCTAGTGCAG,8260 fluorescence intensity (a.u.)
19,GTTAATCTATCGCTCCGTTTGATGTGTGGAGGTCTTTCCACGGAGTCACCTAGTGCAG,8080 fluorescence intensity (a.u.)
20,CCTTCCGTTTGACACTGTTGACTTTTTTAAATATGTTTGACGGAGTCACCTAGTGCAG,16100 fluorescence intensity (a.u.)
21,ATCAATTCAGTCGTTTGTATCCTCGAATCATTTTCATGTTCGGAGTCACCTAGTGCAG,9840 fluorescence intensity (a.u.)

row,Sequence,binding signal
1,CCTCCATTGCCAGTTGCTGCTCATCCTCATCTTCTCCATCCGGAGTCACCTAGTGCAG,8780 fluorescence intensity (a.u.)
2,TTATCTTCGTTTGTTCTAAGTTACTTCTATAATATATATACGGAGTCACCTAGTGCAG,8400 fluorescence intensity (a.u.)
3,ATCACTGTCACCTTCACAACCATCACCACCAACTAAATCGCGGAGTCACCTAGTGCAG,10000 fluorescence intensity (a.u.)
4,TTTGGTCCGAGTTTCATTCACGTCGTTTAACCGCGAAATCCGGAGTCACCTAGTGCAG,8930 fluorescence intensity (a.u.)
5,ACAGAACCATGCATCTATGTGCTTATACTCTCCCATGCGACGGAGTCACCTAGTGCAG,8660 fluorescence intensity (a.u.)
6,CATCCACACGCACTTTACAACTTCGCTTTTCTTCGCATCGCGGAGTCACCTAGTGCAG,10400 fluorescence intensity (a.u.)
7,GTTCCTCTCCTCCGCAAATGGCGACCAACCCCTTGACCCACGGAGTCACCTAGTGCAG,8070 fluorescence intensity (a.u.)
8,TTTCTCGATCTCTCCCGTTGCAAGTATGTTCGCCTGTTATCGGAGTCACCTAGTGCAG,14900 fluorescence intensity (a.u.)
9,GCTTGGATTTTTTTTGTTGCTTTTGGTTGTTGTGATCCCTCGGAGTCACCTAGTGCAG,11800 fluorescence intensity (a.u.)
10,CTCCTCGCTTCCTTGTCCATCTTCAAGCTACCTTGCTTCTCGGAGTCACCTAGTGCAG,8200 fluorescence intensity (a.u.)
11,GATGATGGTGGTGTCCTTGCCGCGTCCTCTCTTCCATACCCGGAGTCACCTAGTGCAG,10900 fluorescence intensity (a.u.)
12,CACGTAGTTTTCCTGTATTTTTTGTTCCTTACAATTCAAGCGGAGTCACCTAGTGCAG,9520 fluorescence intensity (a.u.)
13,GGTATTTGAGTATGTCATCCGTGTATGAGTCAAGTTCGTACGGAGTCACCTAGTGCAG,8130 fluorescence intensity (a.u.)
14,TAGCTACTTCCTTTTTTTCTTTTTCCCATCCCTCAAGCGACGGAGTCACCTAGTGCAG,8080 fluorescence intensity (a.u.)
15,GTAGTCAGTGGTTGCTGGTGGTCTAAGAAGTTTGCTGTTGCGGAGTCACCTAGTGCAG,8710 fluorescence intensity (a.u.)
16,CGGCGGGTTAGGGTTTGGGGTTGGGGTAAGGATAGGAGGGCGGAGTCACCTAGTGCAG,14200 fluorescence intensity (a.u.)
17,GGAGGGGAGGTCTGTGATGTCAACAAGTTAGGAGCGAGGACGGAGTCACCTAGTGCAG,10800 fluorescence intensity (a.u.)
18,GCGCCCGTAGCTTGTCCGAAGGAACCTTGCAATGTTTAACCGGAGTCACCTAGTGCAG,8360 fluorescence intensity (a.u.)
19,ATCCAACCCAACTCCCGTTGCTTTTTGTTGGACCCACTTGCGGAGTCACCTAGTGCAG,8110 fluorescence intensity (a.u.)
20,ACGGTGCGGTCTTGATTCGTGATTTTTCTCTCCTTCGCATCGGAGTCACCTAGTGCAG,8520 fluorescence intensity (a.u.)
21,ACCCGCTGATTGATTGATTGGTTTGTCTTGGTCGTTGGCTCGGAGTCACCTAGTGCAG,9690 fluorescence intensity (a.u.)

# Looked up one by one from the entries so far, 3 records:
row,Sequence,binding signal
4,TTTGGTCCGAGTTTCATTCACGTCGTTTAACCGCGAAATCCGGAGTCACCTAGTGCAG,8930 fluorescence intensity (a.u.)
21,ATCAATTCAGTCGTTTGTATCCTCGAATCATTTTCATGTTCGGAGTCACCTAGTGCAG,9840 fluorescence intensity (a.u.)
20,ACGGTGCGGTCTTGATTCGTGATTTTTCTCTCCTTCGCATCGGAGTCACCTAGTGCAG,8520 fluorescence intensity (a.u.)
